The list shows only some results of the screen, not a fair sample: it is rich in T/C values a quarter to a half above the control, in often repeated tests (any T/C) and in doses without a T/C. Other doses and runs of a compound stand elsewhere. T/C is the treated group as % of the vehicle group. Some doses have a count of surviving animals in place of a T/C: the source holds a T/C of zero for them, seemingly a mark for toxic or unscored doses. Some doses without a T/C left all or most animals alive at the check, yet need not have been tolerated: the source hardly ever lists a survival T/C far under the control, and the zero likely stands for such cases as well. Survivors were counted at the toxicity check, usually on the fifth day, unless a day is given; later deaths do not show. Schedule codes are those of the source, taken here to give the interval after Q, in days (D) or hours (H), and the number of doses after X. Some doses were run more than once; the results are listed from low to high. For survival time, this PubChem deposit counts one and a half times the control or more as active, and values a quarter to a half above the control carry no call in these data; other NCI protocols may use other cut-offs. Some T/C values are followed by the survivors on the day toxicity was checked, most often the fifth; without a count, all were alive then. Additions like (4×) say how often a value occurs here.

This is an account of results in PubChem BioAssay AID340 (DTP/NCI, 2004).

This test relates to CD2F1 mice, ip reticulum cell sarcoma, survival T/C. The test is described as follows: NCI In Vivo Anticancer Drug Screen. Data for tumor model Reticulum Cell Sarcoma (Kelley Mouse) (intraperitoneal) in CD2F1 (CDF1) mice. Particulars: T/C endpoint: median survival time, schedule: Q01DX010 (ip), higher T/C = longer survival. How it is done:
The antitumor activity of compounds was measured in mice bearing transplantable tumors. Survival or tumor size were measured and the results are expressed as the measurement made in the treated group (T) divided by the measurement made in the vehicle treated control group (C). The tumor model used in this assay is Reticulum Cell Sarcoma (Kelley Mouse) (intraperitoneal) in CD2F1 (CDF1) mice

[1] abbreviates: dose: 25.0 mg/kg/injection, vehicle: saline.
[2] abbreviates: dose: 20.0 mg/kg/injection, vehicle: saline.
Where [3] appears, read: dose: 200.0 mg/kg/injection, vehicle: saline.
[4] abbreviates: dose: 120.0 mg/kg/injection, vehicle: saline.
The mark [5] stands for this setting: dose: 4.0 mg/kg/injection, vehicle: other.
Where [6] appears, read: dose: 16.0 mg/kg/injection, vehicle: saline.
Setting [7] is: dose: 64.0 mg/kg/injection, vehicle: saline.
The mark [8] stands for this setting: dose: 8.0 mg/kg/injection, vehicle: saline.
Setting [9] is: dose: 10.0 mg/kg/injection, vehicle: saline.
The mark [10] stands for this setting: dose: 90.0 mg/kg/injection, vehicle: saline.
The mark [11] stands for this setting: dose: 8.0 mg/kg/injection, vehicle: other.
The mark [12] stands for this setting: dose: 5.0 mg/kg/injection, vehicle: alkali diluted with saline.
[13] abbreviates: dose: 0.19 mg/kg/injection, vehicle: other.
[14] abbreviates: dose: 0.38 mg/kg/injection, vehicle: other.
Where [15] appears, read: dose: 0.75 mg/kg/injection, vehicle: other.
Where [16] appears, read: dose: 1.5 mg/kg/injection, vehicle: other.
Where [17] appears, read: dose: 3.0 mg/kg/injection, vehicle: other.

In the case of `O=NN(CCCl)C(=O)NCCCl`, the survivor count is 5 of 6 and 6 of 6 under setting [1]; 1 of 6 and 2 of 6 (dose: 50.0 mg/kg/injection, vehicle: saline).
As to `O=C(O)c1[nH]c(=O)[nH]c(=O)c1F`, the survivor count under setting [2] is listed as 7 of 7.
Consider `CN(C)/N=N/c1nc[nH]c1C(N)=O`, for which the T/C under setting [3] is 128 and 132 % of control.
With `N#CCSc1ncnc2nc[nH]c12`, the survivor count runs as follows: under setting [4], 0 of 6; (dose: 240.0 mg/kg/injection, vehicle: saline) 0 of 6.
`O=C(Nc1ccc(C2=NCCN2)cc1)c1ccc(C(=O)Nc2ccc(C3=NCCN3)cc2)cc1`: the T/C runs as follows: under setting [5], 146 % of control; (dose: 64.0 mg/kg/injection, vehicle: other) 140 % of control.
Turning to `CS(=O)(=O)OCCCl`, the T/C was 125 % of control (dose: 9.4 mg/kg/injection, vehicle: saline); 128 % of control (dose: 18.8 mg/kg/injection, vehicle: saline); 125 % of control (dose: 75.0 mg/kg/injection, vehicle: saline). In addition, the survivor count (dose: 150.0 mg/kg/injection, vehicle: saline) is listed as 3 of 6.
Turning to `C1CN1c1nc(N2CC2)nc(N2CC2)n1`, the survivor count is recorded as 6 of 6 (dose: 1.0 mg/kg/injection, vehicle: saline) and 4 of 6 (dose: 2.0 mg/kg/injection, vehicle: saline).
As for `Nc1nc(SCc2ccccc2)c2[nH]cnc2n1`, the T/C is 129 % of control under setting [6] and 133 % of control under setting [7].
For the compound `O=C(Nc1ccc(C2=NCCN2)cc1)c1cccc(C(=O)Nc2ccc(C3=NCCN3)cc2)c1`, the T/C was 134 % of control under setting [8]; 126 % of control under setting [6]; 144 % of control (dose: 32.0 mg/kg/injection, vehicle: saline).
As for `Cc1cc(N(CCCl)CCCl)ccc1N=Nc1ccccc1C(=O)O`, the T/C under setting [9] was 132 % of control. For the same compound, the survivor count is, setting by setting: (dose: 40.0 mg/kg/injection, vehicle: saline) 6 of 6; (dose: 80.0 mg/kg/injection, vehicle: saline) 4 of 6.
With `O=c1[nH]c(=O)n(C2CC(O)C(CO)O2)cc1F` (stereo not drawn), the T/C under setting [9] was 131 % of control.
As to `COc1cc(-c2ccc(Nc3ccccc3C(=O)O)c(OC)c2)ccc1Nc1ccccc1C(=O)O`, the T/C under setting [1] was 129 % of control. In addition, the survivor count under setting [3] is given as 3 of 6.
In the case of `CN(C)c1ccc(Nc2c3ccccc3nc3ccccc23)cc1`, the T/C under setting [4] was 125 % of control.
On to `CN(C)[C@@H]1C(=O)C(C(N)=O)=C(O)[C@@]2(O)C(=O)C3=C(O)c4c(O)cccc4C[C@H]3C[C@@H]12`, for which the survivor count (dose: 60.0 mg/kg/injection, vehicle: saline) is 4 of 6.
For the compound `CCN(CCNc1ccc(C)c2sc3cc(Cl)ccc3c(=O)c12)CC(C)O` (stereo not drawn), the survivor count (dose: 31.3 mg/kg/injection, vehicle: saline) was 7 of 7; the survivor count (dose: 62.5 mg/kg/injection, vehicle: saline) is on record as 6 of 6; the survivor count (dose: 500.0 mg/kg/injection, vehicle: saline) is on record as 3 of 6.
Turning to `O=P1(N(CCCl)CCCl)NCCCO1` (stereo not drawn), the T/C was 93, 97 (2×), 105 % of control (dose: 11.3 mg/kg/injection, vehicle: saline); 94, 107, 118, 120 % of control (dose: 22.5 mg/kg/injection, vehicle: saline); 107, 126, 130, 151 % of control (dose: 45.0 mg/kg/injection, vehicle: saline); 87 % of control under setting [10]. The survivor count is 5 of 6 and 6 of 6 under setting [10]; 6 of 6 (dose: 180.0 mg/kg/injection, vehicle: saline).
For the compound `O=C(Nc1ccc(C2=NCCCN2)cc1)c1ccc(NC(=O)c2ccc(C3=NCCCN3)cc2)cc1`, the T/C is, setting by setting: (dose: 1.0 mg/kg/injection, vehicle: other) 131 % of control; under setting [5], 148 % of control. Besides, the survivor count by setting is: under setting [11], 6 of 6; (dose: 16.0 mg/kg/injection, vehicle: other) 1 of 6 and 2 of 6.
For the compound `Nc1nc(=S)c2ncn(C3OC(CO)C(O)C3O)c2[nH]1` (stereo not drawn), the T/C under setting [8] is 128 % of control.
Regarding `O=C(Nc1ccc(C2=NCCCN2)cc1)c1ccc(C(=O)Nc2ccc(C3=NCCCN3)cc2)cc1`, the survivor count is, setting by setting: (dose: 2.0 mg/kg/injection, vehicle: other) 4 of 6; under setting [5], 6 of 6; under setting [11], 5 of 6.
With `N#[N+]c1cnc([O-])[nH]c1=O`, the T/C under setting [9] is 127 % of control. Moreover, under setting [2], the survivor count is recorded as 3 of 6.
Consider `S=c1nc[nH]c2nc[nH]c12`, for which the T/C runs as follows: under setting [12], 91, 114, 118 % of control; (dose: 10.0 mg/kg/injection, vehicle: alkali diluted with saline) 98, 109, 113, 122 % of control; (dose: 20.0 mg/kg/injection, vehicle: alkali diluted with saline) 122, 123 [5 of 6 alive], 130, 134 % of control; (dose: 40.0 mg/kg/injection, vehicle: alkali diluted with saline) 118, 120 (2×), 138 % of control; (dose: 80.0 mg/kg/injection, vehicle: alkali diluted with saline) 107, 131, 147, 153 % of control. Also, the survivor count under setting [12] was 6 of 6.
In the case of `OCC1OC(n2cnc3c(=S)nc[nH]c32)C(O)C1O` (stereo not drawn), the T/C was 137 % of control under setting [2] and 141 % of control (dose: 160.0 mg/kg/injection, vehicle: saline).
Regarding `O=C(Nc1ccc(NC2=NCCN2)cc1)c1ccc(C(=O)Nc2ccc(NC3=NCCN3)cc2)cc1`, the T/C (dose: 4.0 mg/kg/injection, vehicle: saline) is 147 % of control.
`C[C@@H]1C[C@@H]([C@H](O)CC2CC(=O)NC(=O)C2)C(=O)[C@@H](C)C1`: the T/C under setting [2] was 127 % of control.
As for `CN(Cc1cnc2nc(N)nc(N)c2n1)c1ccc(C(=O)N[C@@H](CCC(=O)O)C(=O)O)cc1`, the T/C by setting is: under setting [13], 87, 88, 111 % of control; under setting [14], 89 and 95 % of control; under setting [15], 92, 93, 94 % of control; under setting [16], 89 and 96 % of control; under setting [17], 86 and 92 % of control. The survivor count under setting [13] is on record as 6 of 6; the survivor count under setting [14] is 6 of 6; the survivor count under setting [15] is 6 of 6; the survivor count under setting [16] is 6 of 6; the survivor count under setting [17] was 6 of 6.
Consider `CC(CCC(C)OS(C)(=O)=O)OS(C)(=O)=O` (stereo not drawn), for which the survivor count under setting [7] is reported as 6 of 6.
Take `O=C(Nc1ccc(C2=NCCN2)cc1)c1ccc(C(=O)Nc2ccc(C3=NCCN3)cc2)c([N+](=O)[O-])c1`: the T/C (dose: 6.0 mg/kg/injection, vehicle: saline) was 139 % of control.
